Reference: PMC10243067
These are yes or no findings as the source states them, for the method shown. In cells and extracts the contact can be indirect. Some entries that bind do so weakly or less than the wild type.

Protein sequences, listed by entry. Tags and fused reporters are not part of them.
UniProt O15541: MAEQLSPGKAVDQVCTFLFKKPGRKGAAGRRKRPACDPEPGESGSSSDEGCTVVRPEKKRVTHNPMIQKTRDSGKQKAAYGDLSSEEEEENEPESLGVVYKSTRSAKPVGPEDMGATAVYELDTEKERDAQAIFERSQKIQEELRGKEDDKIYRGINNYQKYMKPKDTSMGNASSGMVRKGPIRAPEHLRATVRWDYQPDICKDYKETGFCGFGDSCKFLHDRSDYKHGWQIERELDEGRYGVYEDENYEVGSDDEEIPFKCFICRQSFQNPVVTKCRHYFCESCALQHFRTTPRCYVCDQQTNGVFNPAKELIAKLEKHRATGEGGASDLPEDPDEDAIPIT
UniProt Q86U44: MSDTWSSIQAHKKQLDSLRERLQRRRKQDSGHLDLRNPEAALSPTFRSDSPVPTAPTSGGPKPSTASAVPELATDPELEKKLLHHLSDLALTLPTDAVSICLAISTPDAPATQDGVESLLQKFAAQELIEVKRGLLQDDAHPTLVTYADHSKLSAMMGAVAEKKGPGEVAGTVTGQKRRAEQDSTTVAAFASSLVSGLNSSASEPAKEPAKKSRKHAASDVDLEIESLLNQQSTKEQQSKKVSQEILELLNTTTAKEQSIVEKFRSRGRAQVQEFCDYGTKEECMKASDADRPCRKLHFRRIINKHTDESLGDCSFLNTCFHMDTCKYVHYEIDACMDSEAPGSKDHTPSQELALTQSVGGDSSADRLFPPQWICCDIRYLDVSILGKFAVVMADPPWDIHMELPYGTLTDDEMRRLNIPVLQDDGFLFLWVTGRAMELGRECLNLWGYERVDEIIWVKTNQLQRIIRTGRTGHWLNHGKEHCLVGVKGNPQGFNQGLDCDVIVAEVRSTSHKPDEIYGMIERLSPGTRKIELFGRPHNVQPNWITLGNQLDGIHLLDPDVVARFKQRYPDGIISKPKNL

Key:
RNF113A = RNF113A (UniProt O15541); experiment: co-IP; reciprocal co-immunoprecipitation in 293 T cells; lysate in IP buffer incubated with antibody-binding magnetic beads at 4 °C overnight, western blot
METTL3 = METTL3 (UniProt Q86U44); experiment: as above

Substance	binding (RNF113A)	binding (METTL3)
METTL3 (from UniProt Q86U44 1-580) (enzyme)	binds	
RNF113A (from UniProt O15541 1-343) (enzyme)		binds
